Some of the results follow.
target: OsWRKY34 (Oryza sativa, UniProt Q0JBA9 1-250); test: protein-binding microarray (RPBM); PBS, 2% BSA, 51.3 ng/ul salmon testes DNA, 50 uM zinc acetate, 200 nM TF, 25 C, 1 h; high values mean tight binding; settings: protein: recombinant; tags: N-terminal polyhistidine and DsRed monomer fusion (pET32a); label: CyDye5-dUTP incorporated in the synthesized complementary strand; 3' TTTTT single-stranded linker to array surface; dsDNA, one strand shown
How it was run: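 Transcription factors were made in E. coli BL21-CodonPlus as N-terminal fusions to a polyhistidine tag and DsRed, then purified on Ni–NTA. After primer extension with Cy5-dUTP and blocking with 2% BSA, a custom Agilent array was exposed for 1 h at 25 °C to 200 nM protein in PBS, 2% BSA, salmon testes DNA and 50 µM zinc acetate. Washed arrays were scanned on an Axon 4000B, and the binding signal is per-feature fluorescence intensity in arbitrary units.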

Protein sequences, listed by entry. Tags and fused reporters are not part of them.
UniProt Q0JBA9, entry or part of it: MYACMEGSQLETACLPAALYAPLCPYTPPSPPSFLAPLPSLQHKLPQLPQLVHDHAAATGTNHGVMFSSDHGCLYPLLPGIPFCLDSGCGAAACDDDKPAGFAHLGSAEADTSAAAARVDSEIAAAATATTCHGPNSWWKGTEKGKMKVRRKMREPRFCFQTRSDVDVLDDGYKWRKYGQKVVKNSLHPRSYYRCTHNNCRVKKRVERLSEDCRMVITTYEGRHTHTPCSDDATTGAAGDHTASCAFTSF

Point of comparison: “CCAGGCCGAACCCTAGCGCCGCCGCCACATCGATCTACCTCGGAGTCACCTAGTGCAG”, binding signal 9280 fluorescence intensity (a.u.). Against it:
- TTTTGTGTATGTTTCGGTGGGAATTTGAGGGTTGTGTTTTCGGAGTCACCTAGTGCAG — higher, 14200 fluorescence intensity (a.u.)
- CGGGCCGGCACCGCTTCAATATTCCGTCTTTGCACCCTTTCGGAGTCACCTAGTGCAG — lower, 8150 fluorescence intensity (a.u.)
- CGCCTCCGCCTCCTCGCACCGAACCGCCTCGGCGCGAGCGCGGAGTCACCTAGTGCAG — lower, 8440 fluorescence intensity (a.u.)
- GCGAGCGACCGTCGCTCGTCCTGCTGCTTCCGCCACATCGCGGAGTCACCTAGTGCAG — lower, 9160 fluorescence intensity (a.u.)
- GGTCTGTGGCCAGTCATCTTTTATTGGTTATCCTAACACTCGGAGTCACCTAGTGCAG — lower, 9240 fluorescence intensity (a.u.)
- ATTGCATCTCTTCTTCAAAAGTATACAACAAATATGTTTTCGGAGTCACCTAGTGCAG — lower, 9070 fluorescence intensity (a.u.)
- AGCTACCTGTTTTCACGAGTTTAGAAGCTTTTTTTATTCTCGGAGTCACCTAGTGCAG — lower, 8330 fluorescence intensity (a.u.)
- GTTTGCATCGAGGACACTGGACTTTGATCCCATAGCTTCACGGAGTCACCTAGTGCAG — lower, 8950 fluorescence intensity (a.u.)
- ACAACGAATTTAGACATGCTTCCTATCCAGATTCATTGTACGGAGTCACCTAGTGCAG — higher, 10700 fluorescence intensity (a.u.)
- ACACTTGCATTCTTATGAAAATCCTACGTTTTTTCTATTTCGGAGTCACCTAGTGCAG — lower, 8960 fluorescence intensity (a.u.)
- TTGGTTGGGCACTTGCGGTTGATCTGGTCCGTTGCTTCAGCGGAGTCACCTAGTGCAG — higher, 11100 fluorescence intensity (a.u.)
- GATTTGAGCTCCAGACGAGCCGAGCCCGAGCGTCTCCCTACGGAGTCACCTAGTGCAG — lower, 8750 fluorescence intensity (a.u.)
- CTCATCATCCCGTCCAAAATCAGCTGCCCGCGCCGACGACCGGAGTCACCTAGTGCAG — lower, 8700 fluorescence intensity (a.u.)
- GTTAATTGAGGGGCGGTAATATATAATTAGGGGAGAGGAGCGGAGTCACCTAGTGCAG — higher, 9740 fluorescence intensity (a.u.)
- GGTGTGGTATCTTTCCCAAGATTTTCTTATTCTTCTTCTTCGGAGTCACCTAGTGCAG — higher, 9630 fluorescence intensity (a.u.)
- GGAGTTCCATTGGATTACCTGGGGACTGGGGTAGTAGATTCGGAGTCACCTAGTGCAG — higher, 9760 fluorescence intensity (a.u.)
- CCTCTCTGATTCGTCACCGCCACCGCCGCGTCGTCCCGCGCGGAGTCACCTAGTGCAG — higher, 9730 fluorescence intensity (a.u.)
- TTAATTTGCACGGTTTCTGTCCAGTCTCATCTTTAGGGCCCGGAGTCACCTAGTGCAG — lower, 8420 fluorescence intensity (a.u.)
- CCGCGTCCGTACTCTCTAGCCTGCGGGTAAGCAACGAACTCGGAGTCACCTAGTGCAG — lower, 8310 fluorescence intensity (a.u.)
- CTATGATTTGTGAGCTTCCCTCTTCTTTTTGTTGCGATTACGGAGTCACCTAGTGCAG — lower, 8560 fluorescence intensity (a.u.)
- GTACTTTCTTGACTAATCATCTATTGTGTGCACACTTTTCCGGAGTCACCTAGTGCAG — higher, 11200 fluorescence intensity (a.u.)
- TATTTGTGCTGAGATGTTGCTAGCTATTGATATTAACGTACGGAGTCACCTAGTGCAG — higher, 10300 fluorescence intensity (a.u.)
- ACTCATTTCGTCGCCGTGTCCCGCGTGGCTCGCCGCCATGCGGAGTCACCTAGTGCAG — higher, 9480 fluorescence intensity (a.u.)
- ATTTTGGTTTAAGTTTTTGTTTCTTATCAGCTCTGAACATCGGAGTCACCTAGTGCAG — lower, 8240 fluorescence intensity (a.u.)
- GGTGTATTGGAGTTGTCTTGTGGATTTTTCTTCTGATGATCGGAGTCACCTAGTGCAG — higher, 11500 fluorescence intensity (a.u.)
- AGCTCCGATTTGCACAATTGCCTCATCTTGTCTTTCTCGACGGAGTCACCTAGTGCAG — lower, 8020 fluorescence intensity (a.u.)
- CATAACATTTGCTTCTTTCTTTGATACCTTGATTTCAGTTCGGAGTCACCTAGTGCAG — higher, 11200 fluorescence intensity (a.u.)
- TCATGTTCTTTTTATAGGGGTGGAAAATACGAGCAGATAACGGAGTCACCTAGTGCAG — higher, 13100 fluorescence intensity (a.u.)
- ATATGGCCCATTGACCTAGTCCAACCGCTAAGTCATCATTCGGAGTCACCTAGTGCAG — lower, 8230 fluorescence intensity (a.u.)
- AAATGGACCATTACCTCGCTAGCTCCCTTGAGGCTTCTTCCGGAGTCACCTAGTGCAG — lower, 8730 fluorescence intensity (a.u.)
- TTTGCCATCCCTTCCTTTCAGTAGACCATCACCACCCCTACGGAGTCACCTAGTGCAG — lower, 8340 fluorescence intensity (a.u.)
- GATGTGACTTTATACTTTGGTGTGTTTGCTGGTATATGTTCGGAGTCACCTAGTGCAG — higher, 14400 fluorescence intensity (a.u.)
- ATAAACTATCGATTCACCGGTTGCTTAGTTGTTCTTCTAGCGGAGTCACCTAGTGCAG — lower, 9190 fluorescence intensity (a.u.)
- TCTGTAGTAGTCATCATCACCTAGGTGCCTACCCTTTTGACGGAGTCACCTAGTGCAG — higher, 9440 fluorescence intensity (a.u.)
- TGTAACATAGGCCGATCGCCACTCCACCGCCGCCTCCAAACGGAGTCACCTAGTGCAG — lower, 8960 fluorescence intensity (a.u.)
- CGTGCGCCGCTCAGCTGTATGACATGTGGGCCCGATGATCCGGAGTCACCTAGTGCAG — lower, 8720 fluorescence intensity (a.u.)
- TCTCCTCGGTCTCCGTTAGGTTCCCGTCAAAACAGGCAATCGGAGTCACCTAGTGCAG — lower, 8940 fluorescence intensity (a.u.)
- GAATACTTTATGCGTGACTTATCTTTTTAATTTTTTTCATCGGAGTCACCTAGTGCAG — lower, 8560 fluorescence intensity (a.u.)
- TTGTTGTAAAGCTTATGGGTCTACTTTCATATGGTTTTGGCGGAGTCACCTAGTGCAG — higher, 64100 fluorescence intensity (a.u.)
- CTTCGCTTCATTAATTCCTTCTTCGATTCATTCCTCACGCCGGAGTCACCTAGTGCAG — lower, 8050 fluorescence intensity (a.u.)
- CATTTTCATATTACTAACCTTTAACCAATGATGGAAGGCACGGAGTCACCTAGTGCAG — higher, 13200 fluorescence intensity (a.u.)
